PMC10146067
Results are given in words; binding and its absence hold for the method and conditions named. In cells and extracts the contact can be indirect. Binding can be weak; no strength is given.

T1: Bombyx mori acetyltransferase cyclic adenosine monophosphate response element binding protein (CREB) binding protein (BmCBP) (Bombyx mori (endogenous in BmN)) (UniProt Q8MYA9)
T1 sequence: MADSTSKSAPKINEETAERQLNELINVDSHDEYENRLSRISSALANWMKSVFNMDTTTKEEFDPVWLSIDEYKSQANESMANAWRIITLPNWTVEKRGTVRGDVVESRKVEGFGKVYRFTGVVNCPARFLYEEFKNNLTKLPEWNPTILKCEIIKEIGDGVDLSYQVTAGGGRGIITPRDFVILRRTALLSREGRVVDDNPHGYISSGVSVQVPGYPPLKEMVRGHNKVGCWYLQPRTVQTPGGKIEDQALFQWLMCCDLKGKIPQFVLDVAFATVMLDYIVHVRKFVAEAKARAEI


Assays:
[1] = target: T1, Bombyx mori acetyltransferase cyclic adenosine monophosphate response element binding protein (CREB) binding protein (BmCBP) (Bombyx mori (endogenous in BmN)); assay: co-IP; BmN cells transfected with pIEX-1-si-GFP-BmApoLp-II, lysed 72 h post-transfection at 4 °C; Dynabeads Protein G loaded with anti-His antibody or rabbit anti-BmCBP antibody, incubated with the cell lysate, washed three times, Western blotting; IgG antibody as negative control; both …
[2] = target: His-BmApoLp-II protein (Bombyx mori apolipophorin II) (Bombyx mori); assay: as above

| binding [1] | binding [2] | Molecule |
| --- | --- | --- |
| binds | – | His-BmApoLp-II protein (Bombyx mori apolipophorin II) |
| – | binds | Bombyx mori acetyltransferase cyclic adenosine monophosphate response element binding protein (CREB) binding protein (BmCBP) (enzyme, UniProt Q8MYA9 1-297) MADSTSKSAPKINEETAERQLNELINVDSHDEYENRLSRISSALANWMKSVFNMDTTTKEEFDPVWLSIDEYKSQANESMANAWRIITLPNWTVEKRGTVRGDVVESRKVEGFGKVYRFTGVVNCPARFLYEEFKNNLTKLPEWNPTILKCEIIKEIGDGVDLSYQVTAGGGRGIITPRDFVILRRTALLSREGRVVDDNPHGYISSGVSVQVPGYPPLKEMVRGHNKVGCWYLQPRTVQTPGGKIEDQALFQWLMCCDLKGKIPQFVLDVAFATVMLDYIVHVRKFVAEAKARAEI |
